{"source": "PubChem BioAssay AID296", "about": "(DTP/NCI, 2004)", "tested_on": "MX-1 breast xenograft, nude mice, tumor weight T/C", "assay": "NCI In Vivo Anticancer Drug Screen. Data for tumor model Human Mammary Carcinoma MX-1 Xenograft (intrarenal inoculation) in NU/NU Swiss (nude) mice", "settings": "T/C endpoint: mean tumor weight change, higher T/C = larger tumour; for T/C: evaluated on day 11", "method_in_brief": "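Read-out: treated (T) over vehicle control (C) ratio of survival or tumor size. Dosing in animals carrying the transplanted tumor.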", "note": "The list is a part of this screen's results and no random one: it is rich in T/C values a quarter to a half above the control, in often repeated tests (any T/C) and in doses without a T/C. Other doses and runs of a compound stand elsewhere. T/C: endpoint of the treated group in % of that of the vehicle group. Schedule codes are those of the source, read here as Q, the interval in days (D) or hours (H), X, the number of doses. Some entries give survivors of the animals treated and no T/C: the source holds a T/C of zero for them, seemingly a mark for toxic or unscored doses. Survivors were counted at the toxicity check, usually on the fifth day, unless a day is given; later deaths do not show. Some entries were tested several times; the values are given in rising order.", "data": [{"smiles": "CC1=CC2C(O)(CC(CO)=CC3C4C(C)(C)C4(OC(=O)c4ccccc4)C(OC(=O)c4ccccc4)C(C)C32O)C1=O", "note": "(configuration not stated)", "values": [{"measurement": "survivor count", "setting": "dose: 20.0 mg/kg/injection, schedule: Q04DX003 (sc), vehicle: saline with Tween-80", "value": "3 of 6 on day 11"}]}, {"smiles": "c1cc2n(n1)CCN2", "values": [{"measurement": "survivor count", "setting": "dose: 400.0 mg/kg/injection, schedule: Q01DX010 (sc), vehicle: saline", "value": "0 of 3 on day 11 and 0 of 6 on day 11"}]}, {"smiles": "Nc1nc(N)c2c(ccc3c2ccn3Cc2cccc([N+](=O)[O-])c2)n1", "values": [{"measurement": "survivor count", "setting": "dose: 150.0 mg/kg/injection, schedule: Q04DX003 (sc), vehicle: saline with Tween-80", "value": "1 of 6 on day 11"}, {"measurement": "survivor count", "setting": "dose: 300.0 mg/kg/injection, schedule: Q04DX003 (sc), vehicle: saline with Tween-80", "value": "2 of 6 on day 11"}]}, {"smiles": "CN(N=O)C(N)=O", "values": [{"measurement": "survivor count", "setting": "dose: 25.0 mg/kg/injection, schedule: Q01DX010 (sc), vehicle: saline with Tween-80", "value": "1 of 2 on day 11"}, {"measurement": "survivor count", "setting": "dose: 50.0 mg/kg/injection, schedule: Q01DX010 (sc), vehicle: saline with Tween-80", "value": "0 of 3 on day 11"}, {"measurement": "survivor count", "setting": "dose: 100.0 mg/kg/injection, schedule: Q01DX010 (sc), vehicle: saline with Tween-80", "value": "0 of 3 on day 11"}, {"measurement": "survivor count", "setting": "dose: 200.0 mg/kg/injection, schedule: Q04DX003 (sc), vehicle: saline with Tween-80", "value": "0 of 6 on day 11"}, {"measurement": "survivor count", "setting": "dose: 200.0 mg/kg/injection, schedule: Q04DX003 (sc), vehicle: suspension in saline", "value": "0 of 3 on day 11"}, {"measurement": "survivor count", "setting": "dose: 400.0 mg/kg/injection, schedule: Q04DX003 (sc), vehicle: saline with Tween-80", "value": "0 of 6 on day 11"}]}, {"smiles": "CSc1ncnc2c1ncn2C1OC(CO)C(O)C1O", "note": "(configuration not stated)", "values": [{"measurement": "survivor count", "setting": "dose: 300.0 mg/kg/injection, schedule: Q04DX003 (sc), vehicle: saline + alcohol", "value": "3 of 6 on day 11"}]}, {"smiles": "CCOc1ccc(-c2nc3ccc(-c4nc5ccc(N6CCN(C)CC6)cc5[nH]4)cc3[nH]2)cc1", "values": [{"measurement": "survivor count", "setting": "dose: 50.0 mg/kg/injection, schedule: Q04DX003 (ip), vehicle: saline", "value": "0 of 6 on day 11"}, {"measurement": "survivor count", "setting": "dose: 100.0 mg/kg/injection, schedule: Q04DX003 (ip), vehicle: saline", "value": "0 of 6 on day 11"}, {"measurement": "survivor count", "setting": "dose: 200.0 mg/kg/injection, schedule: Q04DX003 (ip), vehicle: saline", "value": "0 of 6 on day 11"}]}, {"smiles": "CCCCCC(=O)O[C@]1(C(C)=O)CC[C@H]2[C@@H]3CCC4=CC(=O)CC[C@]4(C)[C@H]3CC[C@@]21C", "values": [{"measurement": "T/C", "setting": "dose: 300.0 mg/kg/injection, schedule: Q04DX003 (sc), vehicle: Klucel (hydroxypropylcellulose) (HPC)", "value": "138 % of control"}, {"measurement": "T/C", "setting": "dose: 1200.0 mg/kg/injection, schedule: Q04DX003 (sc), vehicle: Klucel (hydroxypropylcellulose) (HPC)", "value": "129 % of control"}]}, {"smiles": "O=C(O)C1CC(c2ccccc2)=NN1c1ccccc1", "note": "(configuration not stated)", "values": [{"measurement": "T/C", "setting": "dose: 100.0 mg/kg/injection, schedule: Q04DX003 (sc), vehicle: water", "value": "144 % of control"}, {"measurement": "survivor count", "setting": "dose: 800.0 mg/kg/injection, schedule: Q04DX003 (sc), vehicle: water", "value": "0 of 6 on day 11"}]}, {"smiles": "C/C(=N\\N=C(/[Se])N1CC2CCC(CC2)C1)c1ccccn1", "values": [{"measurement": "survivor count", "setting": "dose: 100.0 mg/kg/injection, schedule: Q04DX003 (sc), vehicle: Klucel (hydroxypropylcellulose) (HPC)", "value": "2 of 6 on day 11"}, {"measurement": "survivor count", "setting": "dose: 200.0 mg/kg/injection, schedule: Q04DX003 (sc), vehicle: Klucel (hydroxypropylcellulose) (HPC)", "value": "1 of 6 on day 11"}]}, {"smiles": "Cc1cc(NCCN(C(C)C)C(C)C)nc(/N=C(\\N)Nc2ccc(Cl)c(C(F)(F)F)c2)n1", "values": [{"measurement": "survivor count", "setting": "dose: 640.0 mg/kg/injection, schedule: Q04DX003 (sc), vehicle: Klucel (hydroxypropylcellulose) (HPC)", "value": "3 of 6 on day 11"}]}, {"smiles": "CC1CC(C)CC(C)C(O)/C(C#N)=C/C=C/CC(C2CCCC2C(=O)O)OC(=O)CC(O)C(C)C1", "note": "(configuration not stated)", "values": [{"measurement": "survivor count", "setting": "dose: 24.0 mg/kg/injection, schedule: Q04DX003 (sc), vehicle: Klucel (hydroxypropylcellulose) (HPC)", "value": "2 of 6 on day 11"}, {"measurement": "survivor count", "setting": "dose: 48.0 mg/kg/injection, schedule: Q04DX003 (sc), vehicle: Klucel (hydroxypropylcellulose) (HPC)", "value": "0 of 6 on day 11"}]}, {"smiles": "O=C(O)C(O)C(O)C1[O][Sb][O]C1C(=O)O", "note": "(configuration not stated)", "values": [{"measurement": "survivor count", "setting": "dose: 300.0 mg/kg/injection, schedule: Q04DX003 (sc), vehicle: saline", "value": "0 of 6 on day 11"}, {"measurement": "survivor count", "setting": "dose: 600.0 mg/kg/injection, schedule: Q04DX003 (sc), vehicle: saline", "value": "0 of 6 on day 11"}]}, {"smiles": "CN(C(=S)S(=O)(=O)C12CC3CC(CC(C3)C1)C2)c1ccccc1", "values": [{"measurement": "T/C", "setting": "dose: 400.0 mg/kg/injection, schedule: Q04DX003 (sc), vehicle: Klucel (hydroxypropylcellulose) (HPC)", "value": "149 % of control"}, {"measurement": "T/C", "setting": "dose: 1600.0 mg/kg/injection, schedule: Q04DX003 (sc), vehicle: Klucel (hydroxypropylcellulose) (HPC)", "value": "148 % of control"}]}]}
